Data reported in patent publication US9591855B2, “Diindol-3-ylmethanes as potent non-toxic antifouling compounds” (Hong Kong University of Science and Technology, priority 2014, dated 2017).

These compounds were tested on Balanus amphitrite cypris larvae.
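Note: larvae held in 24-well plates with compound in seawater, dark, 48 h, settled larvae (attached plus metamorphosed) and dead or missing larvae counted microscopically as percent of total per well.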

Row | Compound | LC50/EC50
1 | c1ccc2c(Cc3c[nH]c4ccccc34)c[nH]c2c1 [Compound 1, di(1H-indol-3-yl)methane] | >53
2 | CC(c1c[nH]c2ccccc12)c1c[nH]c2ccccc12 [Compound 2, vibrindole A] | >34
3 | OCC(O)C(c1c[nH]c2ccccc12)c1c[nH]c2ccccc12 (stereo not drawn) [Compound 3, 3,3′-di-1H-indol-3-yl-1,2-propandiol] | >17
4 | O=C(c1c[nH]c2ccccc12)C(c1c[nH]c2ccccc12)c1c[nH]c2ccccc12 [Compound 5, 1,2,2-tri(1H-indol-3-yl) ethanone] | >30
5 | c1ccc(C(c2c[nH]c3ccccc23)c2c[nH]c3ccccc23)cc1 [Compound 7, 3,3′-(phenylmethylene) bis-1H-indole] | >42
6 | Oc1ccc(C(c2c[nH]c3ccccc23)c2c[nH]c3ccccc23)cc1 [Compound 8, 4-(di(1H-indol-3-yl)methyl) phenol] | >70
7 | CC(=O)Oc1ccc(C(c2c[nH]c3ccccc23)c2c[nH]c3ccccc23)cc1 [Compound 9, 4-[di(1H-indol-3-yl)methyl]phenyl acetate] | >28
8 | c1ccc2[nH]ccc2c1 [Indole, indole, reference compound] | 4.72
9 | arsindoline A [Compound 6] | >26
